Measurements as given in PubChem BioAssay AID504444 (National Center for Advancing Translational Sciences (NCATS), 2011).
“And” between values parts separate entries of the source, which are not always exact repeats. Equal entries are not always repeated. The campaign covered roughly 360,000 compounds. About 7,500 (2.1%) were called active. Inconclusive means that the source gave no clear call. Such entries were picked first, then a sample of the others. The call rests on the fitted dose curve; in most records, active means well fitted inhibition curve with a large enough effect; inconclusive means small, poorly fitted or top-dose-only effect, or effect the other way; inactive means flat fitted curve, though single readings scatter. Where the call is inconclusive, the potency comes from a doubtful curve fit.

assay: Nrf2 qHTS screen for inhibitors; conditions: A549 ARE-Fluc reporter, luciferase luminescence, 18-24 h; activity change, negative = inhibition: at 46 µM (top of the series); further: nearly all actives have a fitted effect of over 60% in size
Text: NIH Molecular Libraries Probe Production Network [MLPCN]
NIH Chemical Genomics Center [NCGC]
Assay Provider: Shyam Biswal, Johns Hopkins University
Nrf2 is a transcription factor that maintains cellular redox homoestasis and protects cells from xenobiotics. Nrf2 binds to the antioxidant response element (ARE) to induce gene expression of a broad spectrum of genes that encode for antioxidants. […] Finding a small molecule that act as an inhibitor of Nrf2 function would represent a novel therapeutic target that could lead to improvement in survival of patients undergoing chemo- and/or radio- therapy.
This is the Nrf2 activity measured in the luminescent read.
1. Shibata, T., et al., Genetic Alteration of Keap1 Confers Constitutive Nrf2 Activation and Resistance to Chemotherapy in Gallbladder Cancer. Gastroenterology, 2008.
2. Sjoblom, T., et al., The consensus coding sequences of human breast and colorectal cancers. Science, 2006. 314(5797): p. 268-74.
NCGC Assay Protocol Summary:
A concentration-response assay was performed with A549 ARE_Fluc cells which are suspended in 5% FBS OPTI-MEM. Five uL were dispensed into 1536-well white TC-treated plate using the Kalypsys dispenser to achieve a density of 5000 cells/well in all columns except column 1. The plate is incubated at 37deg C at 5% CO2 for 2 hours before 23 nL of compounds are added with the Kalypsys pin tool equipped with a 1,536-pin array containing 10-nL slotted pins (FP1S10, 0.457-mm diameter, 50.8 mm long; V&P Scientific). The control compounds Budesonide and Staurosporine are both added at a concentration of 2mM and Budesonide is also added as a 1:10 titration, starting at 200uM, to achieve dose-response. After an 18-24 hour incubation at 37deg C at 5% CO2, 5ul of medium is added to column 1. Afterwards 1ul of 5x of CellTiter-Fluor (Promega) is added to every well. The plate is then incubated at 37deg C at 5% CO2 for 30 minutes before they are read on the ViewLux (Perkin Elmer) for a fluorescent read Ex=405(10)/Em=525(10) for a 3 second exposure, 2x binning, and high gain. Then 3 uL of 3x BugLite is dispensed into all wells and the plate is incubated at ambient room temperature for 15 minutes. Afterwards another ViewLux read is performed using the clear filter to get a luminescent read with the settings of 40 second exposure, 2x binning, and high gain. Cytotoxicity is assessed through the first fluorescent read and then biochemical activity against Nrf2 is measured in the luminescent read.
On the % scale 0 is the no-effect control and ±100 the full control effect; potency means the concentration at half of the fitted maximal effect.

| Structure (SMILES) | Potency | activity change, negative = inhibition |
| --- | --- | --- |
| O=C(c1ccccc1)N1C(=O)C(c2ccccc2)Oc2ccccc21 (stereo not drawn) | inconclusive: 18.4 µM [falling, partial curve, poor fit] | – |
| c1ccc(CC(NCc2ccco2)c2ccccc2)cc1 (stereo not drawn) | inconclusive: 0.82 µM [falling, partial curve, poor fit] | – |
| CC(C)(C)c1ccc(C(=O)NCCN2CCOCC2)cc1 | inconclusive: 0.92 µM [activator, partial curve] | – |
| CCCCNC(=O)c1c(N)n(Cc2ccc3c(c2)OCO3)c2nc3ccccc3nc12 | – | inactive: -7.66% |
| N#Cc1ccccc1Cn1cc(C(=O)C2CC2)c2ccccc21 | inconclusive: 14.6 µM [falling, partial curve] | – |
| CCS(=O)(=O)Nc1ccc(C2=NN(C(=O)c3ccco3)C(c3ccc(Cl)o3)C2)cc1 (stereo not drawn) | inconclusive: 20.6 µM [falling, single point] | – |
| C=CCn1c(C2CC2)n[nH]c1=S | inconclusive: 32.6 µM [activator, single point] | – |
| CCCCn1c(C)c(C(=O)OCC)c2c(CN3CCCC3)c(O)ccc21 | inconclusive: 32.6 µM [falling, single point] | – |
| CN(C)C(=O)Oc1ccc(-c2cn3cc(Cl)ccc3n2)cc1 | inconclusive: 1.84 µM [activator, partial curve] | – |
| CCC(=NCc1ccc2c(c1)OCO2)c1c(O)n(C)c(=O)n(C)c1=O | inconclusive: 8.2 µM [falling, partial curve, poor fit] | – |
| CC1=NN(c2ccccc2)C(=O)/C1=C/c1c(O)[nH]c(=O)[nH]c1=O | – | inactive: 1.42% |
| CCCCn1c(=O)c(C(=O)Nc2ncccc2C)c(O)c2ccccc21 | inconclusive: 29.1 µM [falling, single point] | – |
| CC(C)C(=O)N1CCC(CN=Cc2c(O)n(C3CCCCC3)c(=O)n(C3CCCCC3)c2=O)CC1 | inconclusive: 29.1 µM [falling, single point] | – |
| CCC(=Nc1ccc(OC)cc1OC)c1c(O)n(C)c(=O)n(C)c1=O | inconclusive: 14.1 µM [falling, partial curve, poor fit] | – |
| CCc1ccc(N2C(=O)NC(=O)/C(=C\c3cccn3CCOc3ccc(C(C)C)cc3)C2=O)cc1 | inconclusive: 2.91 µM [activator, partial curve] | – |
| Cc1ccc(C(=O)Oc2cc(N)n(S(=O)(=O)c3ccc(F)cc3)n2)cc1 | active: 1.84 µM | – |
| Cn1c(=O)c2c(nc(N/N=C/c3c(O)n(C4CCCCC4)c(=S)[nH]c3=O)n2C)n(C)c1=O | inconclusive: 20.6 µM [falling, partial curve, poor fit] | – |
| Cc1ccccc1OCCN=Cc1c(O)n(C)c(=O)n(C)c1=O | active: 20.6 µM | – |
| Cc1cccc(N2CCN(C(=O)CCNS(=O)(=O)c3ccc4c(c3)oc(=O)n4C)CC2)c1C | active: 20.6 µM | – |
| COC(=O)C1=C(c2ccc(F)cc2OCc2ccccc2)C[C@@H]2CC[C@H]1N2C(=O)NCc1cc(C)oc1C(F)(F)F | inconclusive: 14.6 µM [falling, partial curve] | – |
| CN(C)c1ccc(Cc2ccc(N(C)C)cc2)cc1 | inconclusive: 0.82 µM [activator, full curve] | – |
| Cc1ccc(C)c(Cn2c(C(=O)O)c(C=O)c3ccccc32)c1 | – | inactive: -11% |

| Structure (SMILES) | Potency | activity change, negative = inhibition |
| --- | --- | --- |
| COc1ccc(CN2CCN(C(=O)Cn3c(=O)oc4cc(Cl)ccc43)CC2)c(OC)c1OC | active: 2.91 µM | – |
| O=C(Cn1c(=O)oc2ccccc21)Nc1ccc(Br)cc1 | inconclusive: 13 µM [falling, partial curve, poor fit] | – |
| Cc1nc(-c2ccc(Cl)cc2)sc1C1(C)CC(c2ccccc2)=NO1 (stereo not drawn) | inconclusive: 20.6 µM [activator, partial curve] | – |
| CCOc1ccc(S(=O)(=O)N(CC(=O)NCc2ccccc2OC)c2ccccc2)cc1 | active: 16.4 µM | – |
| Brc1ccc(Oc2ccc(Br)cc2Br)c(Br)c1 | inconclusive: 29.1 µM [activator, single point] | – |
| O=c1[nH]c(=O)n(CCC2=CCCCC2)c(O)c1/C=N/Nc1ccccc1 | active: 23.1 µM | – |
| COC(=O)C1=C(c2cccc(OCc3ccccc3)c2)C[C@@H]2CC[C@H]1N2C(=O)NCCc1ccc(F)cc1 | inconclusive: 20.6 µM [falling, single point] | – |
| O=C(NCCCN1CC1)Nc1cccc2ccccc12 | – | inactive: 26.3% |
| Cn1nc(-c2ccc(OCC(=O)N3CCN(Cc4ccccc4)CC3)cc2)c2ccccc2c1=O | active: 13 µM and active: 18.4 µM | – |
| CCOC(=O)c1ccc(N=C(CC)c2c(O)n(C)c(=O)n(C)c2=O)cc1 | – | inactive: -10.7% |
| CCCCCCn1c(=O)c(C(=O)Nc2cnccn2)c(O)c2ccccc21 | active: 4.11 µM | – |
| CN(C(=O)CSc1nc2ccc(NC(=O)COc3ccc(Cl)cc3)cc2s1)c1ccccc1 | active: 14.6 µM | – |
| Cc1ccc(-c2noc(=O)n2CC(=O)Nc2ccc(S(=O)(=O)NC3CC3)cc2)cc1 | inconclusive: 20.6 µM [falling, partial curve, poor fit] | – |
| O=C(Nc1ccc(Cl)c(Cl)c1)c1ccco1 | inconclusive: 5.17 µM [activator, full curve] | – |
| Fc1ccccc1-c1n[nH]c(=S)n1Cc1ccccc1 | inconclusive: 0.206 µM [falling, full curve, poor fit] | – |
| Oc1ccc(CCN2CCCCC2)cc1 | – | inactive: 0.518% |
| C=C1C(=O)O[C@@H]2C[C@@H](C)[C@@H]3C=CC(=O)[C@@]3(C)[C@@H](OC(=O)CC(=O)O[C@H]3[C@@H]4C(=C)C(=O)O[C@@H]4C[C@@H](C)[C@@H]4C=CC(=O)[C@]43C)[C@H]12 | active: 2.59 µM | – |
| CCN1CCN(c2ccc(NC(C)=O)cc2Cl)CC1 | – | inactive: 12% |
| O=C1C(=O)c2ccccc2-c2ccccc21 | active: 18.4 µM | – |
| NC(N)=N/N=C/c1ccc(N(c2ccccc2)c2ccccc2)cc1 | – | inactive: -18.1% |
| COC(=O)C1=C(c2cccc(OCc3ccccc3)c2)C[C@@H]2CC[C@H]1N2C(=O)NCCCOC(C)C | inconclusive: 25.9 µM [falling, single point] | – |
| O=C(COc1ccc(Cl)cc1)N1CCN(Cc2ccc([N+](=O)[O-])cc2)CC1 | inconclusive: 20.6 µM [falling, single point] | – |
| C=CCNC(=S)Nc1ccc(OC(=O)Nc2ccc(Cl)c(Cl)c2)cc1 | – | inactive: 6.95% |

14 successive records out of the list so far:

| Structure (SMILES) | Potency | activity change, negative = inhibition |
| --- | --- | --- |
| Brc1ccc(Oc2ccc(Br)cc2Br)c(Br)c1 | inconclusive: 29.1 µM [activator, single point] | – |
| O=c1[nH]c(=O)n(CCC2=CCCCC2)c(O)c1/C=N/Nc1ccccc1 | active: 23.1 µM | – |
| COC(=O)C1=C(c2cccc(OCc3ccccc3)c2)C[C@@H]2CC[C@H]1N2C(=O)NCCc1ccc(F)cc1 | inconclusive: 20.6 µM [falling, single point] | – |
| O=C(NCCCN1CC1)Nc1cccc2ccccc12 | – | inactive: 26.3% |
| Cn1nc(-c2ccc(OCC(=O)N3CCN(Cc4ccccc4)CC3)cc2)c2ccccc2c1=O | active: 13 µM and active: 18.4 µM | – |
| CCOC(=O)c1ccc(N=C(CC)c2c(O)n(C)c(=O)n(C)c2=O)cc1 | – | inactive: -10.7% |
| CCCCCCn1c(=O)c(C(=O)Nc2cnccn2)c(O)c2ccccc21 | active: 4.11 µM | – |
| CN(C(=O)CSc1nc2ccc(NC(=O)COc3ccc(Cl)cc3)cc2s1)c1ccccc1 | active: 14.6 µM | – |
| Cc1ccc(-c2noc(=O)n2CC(=O)Nc2ccc(S(=O)(=O)NC3CC3)cc2)cc1 | inconclusive: 20.6 µM [falling, partial curve, poor fit] | – |
| O=C(Nc1ccc(Cl)c(Cl)c1)c1ccco1 | inconclusive: 5.17 µM [activator, full curve] | – |
| Fc1ccccc1-c1n[nH]c(=S)n1Cc1ccccc1 | inconclusive: 0.206 µM [falling, full curve, poor fit] | – |
| Oc1ccc(CCN2CCCCC2)cc1 | – | inactive: 0.518% |
| C=C1C(=O)O[C@@H]2C[C@@H](C)[C@@H]3C=CC(=O)[C@@]3(C)[C@@H](OC(=O)CC(=O)O[C@H]3[C@@H]4C(=C)C(=O)O[C@@H]4C[C@@H](C)[C@@H]4C=CC(=O)[C@]43C)[C@H]12 | active: 2.59 µM | – |
| CCN1CCN(c2ccc(NC(C)=O)cc2Cl)CC1 | – | inactive: 12% |

(further entries)

| Structure (SMILES) | Potency | activity change, negative = inhibition |
| --- | --- | --- |
| C=CCn1cc(C=C2C(=O)N(C)C(=O)N(C)C2=O)c2ccccc21 | – | inactive: 9.77% |
| COc1ccc(-n2c(C)nc3cc(C(=O)N4CCC5(CC4)OCCO5)ccc32)cc1 | – | inactive: -27.7% |
| COC(=O)C1=C(c2cccc(OCc3ccccc3)c2)C[C@@H]2CC[C@H]1N2C(=O)NCc1ccc(F)cc1 | inconclusive: 29.1 µM [falling, single point] | – |
| CC(=NCc1cccnc1)c1c(O)n(C2CCCCC2)c(=O)[nH]c1=O | inconclusive: 29.1 µM [falling, single point] | – |
| Cc1c(C=C2C(=O)N(C)C(=S)N(C)C2=O)c2ccccc2n1CC(=O)NCC1CCCO1 (stereo not drawn) | – | inactive: 7.85% |
| COc1cc([N+](=O)[O-])c2nc(C)ccc2c1[N+](=O)[O-] | – | inactive: -7.12% |
| COC(=O)C1=C(c2ccc3ccccc3c2)C[C@@H]2CC[C@H]1N2C(=O)NCC1CC1 | inconclusive: 29.1 µM [falling, single point] | – |
| COC1=C[C@@H]2C3=C([C@@H]2C1=O)[C@@H](NC(C)=O)CCc1cc(OC)c(OC)c(OC)c13 | – | inactive: 2.68% |
| Cn1c(CN2CCN(C(=O)COc3ccccc3)CC2)nc2cc([N+](=O)[O-])ccc21 | inconclusive: 29.1 µM [falling, partial curve, poor fit] | – |
| CCC(=O)c1cn(Cc2ccccc2C#N)c2ccccc12 | inconclusive: 4.61 µM [falling, full curve, poor fit] | – |
| Cc1ccc(S(=O)(=O)Oc2ccccc2C=C2C(=O)N(C)C(=O)N(C)C2=O)cc1 | – | inactive: 9% |
| O=c1c2ccccc2nc(-c2ccco2)n1-c1ccncc1 | inconclusive: 20.6 µM [activator, single point] | – |
| Cc1ccc2c(c1)C1CN(C)CCC1N2C(=O)c1ccccc1NS(=O)(=O)c1cccc(C(F)(F)F)c1 (stereo not drawn) | inconclusive: 25.9 µM [falling, single point] | – |
| C[n+]1c(-c2ccccc2)sc2ccccc21 | inconclusive: 11.6 µM [falling, partial curve, poor fit] | – |
| C#CCOCCOCCOCCNc1nc(N2CCN(C(=O)CCCCCCCCCCNC(=O)[C@H]([C@@H](C)CC)n3cc(CCCCN=C(N)N)nn3)CC2)nc(N2CCN(C(=O)CCCCCCCCCCNC(=O)[C@H](CO)n3cc(CCCCCN)nn3)CC2)n1 | inconclusive: 29.1 µM [falling, single point] | – |
| CC(C)Oc1ccc(NC(=O)c2cc3ccccc3o2)cc1 | inconclusive: 2.06 µM [activator, full curve, poor fit] | – |
| COc1ccc2[nH]c(C)c(CCNCc3cn(C)c4ccccc34)c2c1 | – | inactive: -14% |
| Cc1cc(Cc2c(O)[nH]c(=S)[nH]c2=O)ccc1OC(C)C | – | inactive: -8.27% |
| CN1CCC(C)(O)C2CCCCC21 (stereo not drawn) | inconclusive: 7.31 µM [falling, single point] | – |
| COc1cc2c(c(OC)c1OC)-c1ccc(O)cc1C(NC(C)=O)CC2 (stereo not drawn) | inconclusive: 1.46 µM [activator, partial curve] | – |
| C[N+]12CCC(CC1)C(OC(=O)C(O)(c1ccccc1)c1ccccc1)C2 (stereo not drawn) | inconclusive: 14.6 µM [falling, single point] | – |
| CCCNS(=O)(=O)c1ccc(OCC(=O)N2CCN(Cc3ccc4c(c3)OCO4)CC2)c(C)c1 | active: 11.6 µM | – |
